# According to the supplement of paper PMC4604168 (melanoma cell lines):
# The list shows a part of the results. Single values are uncertain, as repeats are few or missing.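 Cells were imaged in 1,536-well plates, and nuclei stained with an antibody against cleaved PARP were counted against all DNA-stained nuclei to give the apoptosis fraction. Screening doses were chosen to leave most cells alive, and resting and induced cleaved-PARP levels differ strongly between cell lines.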
# Tested on: MZ2-MEL
# Assay: cleaved PARP positive nuclei fraction relative to DMSO control; melanoma cells; higher = more apoptosis
# Conditions: library dose: low library concentration; 72 h
row,Structure (SMILES),cleaved PARP positive nuclei fraction [%]
1,"NC(=O)c1ccc(N(C(N)=O)c2c(F)cccc2F)nc1-c1ccc(F)cc1F + Nc1nc(F)nc2c1ncn2[C@@H]1O[C@H](CO)[C@@H](O)[C@@H]1O [fludarabine] (first compound 0.4 µM, partner dose 0.2 µM)",97.4
2,"Cn1sc(=O)n(Cc2ccccc2)c1=O + CNC(=O)c1cc(Oc2ccc(NC(=O)Nc3ccc(Cl)c(C(F)(F)F)c3)cc2)ccn1 [sorafenib] (first compound 0.4 µM, partner dose 0.4 µM)",150
3,"COc1ccc(C2=N[C@@H](c3ccc(Cl)cc3)[C@@H](c3ccc(Cl)cc3)N2C(=O)N2CCNC(=O)C2)c(OC(C)C)c1 [Nutlin-3] + CN(c1ncccc1CNc1nc(Nc2ccc3c(c2)CC(=O)N3)ncc1C(F)(F)F)S(C)(=O)=O [PF562271] (first compound 0.1 µM, partner dose 0.08 µM)",49.8
4,"CN(c1ncccc1CNc1nc(Nc2ccc3c(c2)CC(=O)N3)ncc1C(F)(F)F)S(C)(=O)=O + Cn1c(=O)n(-c2ccc(C(C)(C)C#N)cc2)c2c3cc(-c4cnc5ccccc5c4)ccc3ncc21 [NVP-BEZ235] (first compound 0.08 µM, partner dose 0.004 µM)",79.4
5,"Cn1sc(=O)n(Cc2ccccc2)c1=O + CCN(CC)CCNC(=O)c1c(C)[nH]c(/C=C2\C(=O)Nc3ccc(F)cc32)c1C [sunitinib] (first compound 0.4 µM, partner dose 0.4 µM)",58.9
6,"CC1(C)CCC(c2ccc(Cl)cc2)=C(CN2CCN(c3ccc(C(=O)NS(=O)(=O)c4ccc(N[C@H](CCN5CCOCC5)CSc5ccccc5)c(S(=O)(=O)C(F)(F)F)c4)cc3)CC2)C1 + Cc1nc(Nc2ncc(C(=O)Nc3c(C)cccc3Cl)s2)cc(N2CCN(CCO)CC2)n1 [dasatanib] (first compound 0.4 µM, partner dose 0.004 µM)",205
7,"Cn1cnc2c(F)c(Nc3ccc(Br)cc3Cl)c(C(=O)NOCCO)cc21 [selumetinib] + Cn1c(Nc2ccc(C(F)(F)F)cc2)nc2cc(Oc3ccnc(-c4ncc(C(F)(F)F)[nH]4)c3)ccc21 [CHIR265] (first compound 0.015 µM, partner dose 0.08 µM)",38.6
8,"C[C@@H](N)c1ccc(C(=O)Nc2ccnc3[nH]ccc23)cc1 + Nc1ncn([C@H]2C[C@H](O)[C@@H](CO)O2)c(=O)n1 [decitabine] (first compound 0.4 µM, partner dose 0.1 µM)",148
9,"CC1(C)CCC(c2ccc(Cl)cc2)=C(CN2CCN(c3ccc(C(=O)NS(=O)(=O)c4ccc(N[C@H](CCN5CCOCC5)CSc5ccccc5)c(S(=O)(=O)C(F)(F)F)c4)cc3)CC2)C1 + COCC[n+]1c2c(n(Cc3cnccn3)c1C)C(=O)c1ccccc1C2=O [YM155] (first compound 0.4 µM, partner dose 0.0004 µM)",988
10,"Cn1sc(=O)n(Cc2ccccc2)c1=O + CS(=O)(=O)CCNCc1ccc(-c2ccc3ncnc(Nc4ccc(OCc5cccc(F)c5)c(Cl)c4)c3c2)o1 [lapatinib] (first compound 0.4 µM, partner dose 0.8 µM)",136
11,"Cn1cnc2c(F)c(Nc3ccc(Br)cc3Cl)c(C(=O)NOCCO)cc21 [selumetinib] + Nc1nc(F)nc2c1ncn2[C@@H]1O[C@H](CO)[C@@H](O)[C@@H]1O [fludarabine] (first compound 0.015 µM, partner dose 0.2 µM)",93.2
12,"CS(=O)(=O)c1ccc(C(=O)Nc2ccc(Cl)c(-c3ccccn3)c2)c(Cl)c1 [vismodegib] + CC(C)C[C@H](NC(=O)[C@H](Cc1ccccc1)NC(=O)c1cnccn1)B(O)O [Bortezomib] (first compound 1 µM, partner dose 0.001 µM)",85.8
13,"CC1(C)CCC(c2ccc(Cl)cc2)=C(CN2CCN(c3ccc(C(=O)NS(=O)(=O)c4ccc(N[C@H](CCN5CCOCC5)CSc5ccccc5)c(S(=O)(=O)C(F)(F)F)c4)cc3)CC2)C1 + C=C(c1ccc(C(=O)O)cc1)c1cc2c(cc1C)C(C)(C)CCC2(C)C [Bexarotene] (first compound 0.4 µM, partner dose 2 µM)",338
14,"CS(=O)(=O)c1ccc(C(=O)Nc2ccc(Cl)c(-c3ccccn3)c2)c(Cl)c1 [vismodegib] + CC(=O)c1c(C)c2cnc(Nc3ccc(N4CCNCC4)cn3)nc2n(C2CCCC2)c1=O [palbociclib] (first compound 1 µM, partner dose 0.04 µM)",69.8
15,"NC(=O)c1ccc(N(C(N)=O)c2c(F)cccc2F)nc1-c1ccc(F)cc1F + C#Cc1cccc(Nc2ncnc3cc(OCCOC)c(OCCOC)cc23)c1 [erlotinib] (first compound 0.4 µM, partner dose 0.8 µM)",17.6
16,"CS(=O)(=O)c1ccc(C(=O)Nc2ccc(Cl)c(-c3ccccn3)c2)c(Cl)c1 [vismodegib] + Nc1nc(F)nc2c1ncn2[C@@H]1O[C@H](CO)[C@@H](O)[C@@H]1O [fludarabine] (first compound 1 µM, partner dose 0.2 µM)",94.7
17,"NC(=O)c1ccc(N(C(N)=O)c2c(F)cccc2F)nc1-c1ccc(F)cc1F + C=CCNC1=C2C[C@@H](C)C[C@H](OC)[C@H](O)[C@@H](C)/C=C(\C)[C@H](OC(N)=O)[C@@H](OC)/C=C\C=C(/C)C(=O)NC(=CC1=O)C2=O [Tanespimycin] (first compound 0.4 µM, partner dose 0.002 µM)",119
18,"CC(=O)O[C@@]12CO[C@@H]1C[C@H](O)[C@@]1(C)C(=O)[C@H](O)C3=C(C)[C@@H](OC(=O)[C@H](O)[C@@H](NC(=O)OC(C)(C)C)c4ccccc4)C[C@@](O)([C@@H](OC(=O)c4ccccc4)[C@H]21)C3(C)C [Docetaxel] + C=C(c1ccc(C(=O)O)cc1)c1cc2c(cc1C)C(C)(C)CCC2(C)C [Bexarotene] (first compound 0.0001 µM, partner dose 2 µM)",819
19,"CC(=O)O[C@@]12CO[C@@H]1C[C@H](O)[C@@]1(C)C(=O)[C@H](O)C3=C(C)[C@@H](OC(=O)[C@H](O)[C@@H](NC(=O)OC(C)(C)C)c4ccccc4)C[C@@](O)([C@@H](OC(=O)c4ccccc4)[C@H]21)C3(C)C [Docetaxel] + C[C@]1(c2nc3c(C(N)=O)cccc3[nH]2)CCCN1 [Veliparib] (first compound 0.0001 µM, partner dose 1.4 µM)",509
20,"CCN(CC)CCNC(=O)c1c(C)[nH]c(/C=C2\C(=O)Nc3ccc(F)cc32)c1C [sunitinib] + OCc1c[nH]c2ccccc12 [Indole-3-carbinol] (first compound 0.4 µM, partner dose 0.8 µM)",62.6
21,"C[C@]1(O)C[C@@H](c2nc(-c3ccc4ccc(-c5ccccc5)nc4c3)c3c(N)nccn32)C1 + CCCS(=O)(=O)Nc1ccc(F)c(C(=O)c2c[nH]c3ncc(Cl)cc23)c1F [PLX4720] (first compound 0.4 µM, partner dose 0.08 µM)",88.9
22,"Cn1cnc2c(F)c(Nc3ccc(Br)cc3Cl)c(C(=O)NOCCO)cc21 [selumetinib] + C#Cc1cccc(Nc2ncnc3cc(OCCOC)c(OCCOC)cc23)c1 [erlotinib] (first compound 0.015 µM, partner dose 0.8 µM)",250
23,"Cn1sc(=O)n(Cc2ccccc2)c1=O + OCc1c[nH]c2ccccc12 [Indole-3-carbinol] (first compound 0.4 µM, partner dose 0.8 µM)",152
24,"Cn1cnc2c(F)c(Nc3ccc(Br)cc3Cl)c(C(=O)NOCCO)cc21 [selumetinib] + C[C@@H](Oc1cc(-c2cnn(C3CCNCC3)c2)cnc1N)c1c(Cl)ccc(F)c1Cl [Crizotinib] (first compound 0.015 µM, partner dose 0.2 µM)",323
25,"NC(=O)c1ccc(N(C(N)=O)c2c(F)cccc2F)nc1-c1ccc(F)cc1F + Clc1ccc(Nc2nnc(Cc3ccncc3)c3ccccc23)cc1 [vatalanib] (first compound 0.4 µM, partner dose 2 µM)",114
26,"Cn1sc(=O)n(Cc2ccccc2)c1=O + Clc1ccc(Nc2nnc(Cc3ccncc3)c3ccccc23)cc1 [vatalanib] (first compound 0.4 µM, partner dose 2 µM)",95.1
27,"COc1ccc(C2=N[C@@H](c3ccc(Cl)cc3)[C@@H](c3ccc(Cl)cc3)N2C(=O)N2CCNC(=O)C2)c(OC(C)C)c1 [Nutlin-3] + CC(=O)c1c(C)c2cnc(Nc3ccc(N4CCNCC4)cn3)nc2n(C2CCCC2)c1=O [palbociclib] (first compound 0.1 µM, partner dose 0.04 µM)",77.7
28,"COc1ccc(C2=N[C@@H](c3ccc(Cl)cc3)[C@@H](c3ccc(Cl)cc3)N2C(=O)N2CCNC(=O)C2)c(OC(C)C)c1 [Nutlin-3] + Cn1c(=O)n(-c2ccc(C(C)(C)C#N)cc2)c2c3cc(-c4cnc5ccccc5c4)ccc3ncc21 [NVP-BEZ235] (first compound 0.1 µM, partner dose 0.004 µM)",118
29,"NC(=O)c1ccc(N(C(N)=O)c2c(F)cccc2F)nc1-c1ccc(F)cc1F + C=C(c1ccc(C(=O)O)cc1)c1cc2c(cc1C)C(C)(C)CCC2(C)C [Bexarotene] (first compound 0.4 µM, partner dose 2 µM)",418

# Rewritten as tab-separated lines: entries from further up.
row	Structure (SMILES)	cleaved PARP positive nuclei fraction [%]
6	CC1(C)CCC(c2ccc(Cl)cc2)=C(CN2CCN(c3ccc(C(=O)NS(=O)(=O)c4ccc(N[C@H](CCN5CCOCC5)CSc5ccccc5)c(S(=O)(=O)C(F)(F)F)c4)cc3)CC2)C1 + Cc1nc(Nc2ncc(C(=O)Nc3c(C)cccc3Cl)s2)cc(N2CCN(CCO)CC2)n1 [dasatanib] (first compound 0.4 µM, partner dose 0.004 µM)	205
9	CC1(C)CCC(c2ccc(Cl)cc2)=C(CN2CCN(c3ccc(C(=O)NS(=O)(=O)c4ccc(N[C@H](CCN5CCOCC5)CSc5ccccc5)c(S(=O)(=O)C(F)(F)F)c4)cc3)CC2)C1 + COCC[n+]1c2c(n(Cc3cnccn3)c1C)C(=O)c1ccccc1C2=O [YM155] (first compound 0.4 µM, partner dose 0.0004 µM)	988
